# Record: PubChem BioAssay AID1159578 (Peter MacCallum Cancer Centre, 2015)
# Aim: 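Genome-wide hunt for genes controlling movement of lymphatic endothelial cells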 (primary screen)
# Cells: human lymphatic endothelial cells
# Reagents: siRNA pool against human genes, 40 nM
# Duration: 48 h after transfection
# Measurement: 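Cells stained with dye and imaged after a scratch; covered wound area and nuclei counted, duplicates averaged, migration set against mock wells and turned into a robust z-score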
# Direction: migration robust z-score: higher = faster migration into the scratch; nuclei per well: higher = more cells in the well
# Hit rule: 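Pools averaging fewer than 3300 nuclei are never called; remaining pools count as changed when migration robust z lies outside -2 to 2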
# Calls: active = migration changed; inactive = no migration change, or too few cells
# Here is a random part of about 18,000 deposited reagents. About 1,030 of all reagents (5.7%) count as active. 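Inactive calls also include pools with fewer than 3300 nuclei, whose migration was not assessed.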 Raw values are not corrected between plates. Not all columns of the deposit are shown.
Gene,migration robust z-score,migration class with cell-count check,"nuclei per well, duplicate mean",Outcome
UGT1A7,-2.59,migration z below -2; enough cells,5514,active
USF3,0.88,migration z between -2 and 2; enough cells,5186,inactive
THBS4,-1.48,migration z between -2 and 2; enough cells,5670,inactive
VCL,0.32,migration z between -2 and 2; enough cells,6168,inactive
ELP3,0.08,migration z between -2 and 2; enough cells,6380,inactive
MYRFL,2.11,migration z above 2; enough cells,6222,active
NIN,1.19,migration z between -2 and 2; enough cells,5260,inactive
TTC7A,-2.88,under 3300 nuclei; migration not judged,2338,inactive
HCAR3,-0.78,migration z between -2 and 2; enough cells,5464,inactive
PGGHG,-0.91,migration z between -2 and 2; enough cells,6145,inactive
TP53I3,0.44,migration z between -2 and 2; enough cells,5839,inactive
KRT73,-2.13,migration z below -2; enough cells,5790,active
EGFLAM,0.22,migration z between -2 and 2; enough cells,6721,inactive
NXT2,-0.65,migration z between -2 and 2; enough cells,5236,inactive
OTP,0.28,migration z between -2 and 2; enough cells,5656,inactive
SP7,-0.16,migration z between -2 and 2; enough cells,3608,inactive
TFF3,0.99,migration z between -2 and 2; enough cells,6606,inactive
ELL,0.58,migration z between -2 and 2; enough cells,4776,inactive
PSG8,0.11,migration z between -2 and 2; enough cells,5496,inactive
PDE6C,0.8,migration z between -2 and 2; enough cells,5850,inactive
PLIN5,-0.64,migration z between -2 and 2; enough cells,4508,inactive
TGDS,1.64,migration z between -2 and 2; enough cells,6305,inactive
H4C3,-0.48,migration z between -2 and 2; enough cells,6067,inactive
RASGEF1B,1.68,migration z between -2 and 2; enough cells,6540,inactive
TSPAN14,-0.6,migration z between -2 and 2; enough cells,5554,inactive
CYP2F1,1.06,migration z between -2 and 2; enough cells,7158,inactive
RPL4,-1.09,migration z between -2 and 2; enough cells,4108,inactive
ACER2,-1.15,migration z between -2 and 2; enough cells,4953,inactive
SNX7,2.56,migration z above 2; enough cells,5452,active
CDH11,-0.3,migration z between -2 and 2; enough cells,5098,inactive
KLRC4,-0.16,migration z between -2 and 2; enough cells,5856,inactive
ATAD2,0.21,migration z between -2 and 2; enough cells,5738,inactive
ABCC5,1.17,migration z between -2 and 2; enough cells,5562,inactive
NCDN,2.1,migration z above 2; enough cells,6409,active
AADACL2,-1.23,migration z between -2 and 2; enough cells,4284,inactive
KPTN,0.08,migration z between -2 and 2; enough cells,5076,inactive
TSHZ3,-1.38,migration z between -2 and 2; enough cells,5948,inactive
KCTD10,-3.19,under 3300 nuclei; migration not judged,3207,inactive
C1orf54,0.58,migration z between -2 and 2; enough cells,6098,inactive
FGFBP1,0.23,migration z between -2 and 2; enough cells,5684,inactive
PPP1R1B,-0.08,migration z between -2 and 2; enough cells,5802,inactive
PDE4A,0.6,migration z between -2 and 2; enough cells,5072,inactive
C8orf82,1.19,migration z between -2 and 2; enough cells,6109,inactive
GAD2,-0.99,migration z between -2 and 2; enough cells,5302,inactive
PCSK6,-1.12,migration z between -2 and 2; enough cells,5010,inactive
HYAL1,-1.92,migration z between -2 and 2; enough cells,4462,inactive
HSPD1,-0.1,migration z between -2 and 2; enough cells,5896,inactive
CHCHD6,0.92,migration z between -2 and 2; enough cells,6138,inactive
ARHGAP29,-0.11,migration z between -2 and 2; enough cells,5126,inactive
CAV2,0.61,migration z between -2 and 2; enough cells,5554,inactive
SCIMP,1.48,migration z between -2 and 2; enough cells,6194,inactive
JAG2,0.13,migration z between -2 and 2; enough cells,6546,inactive
SHMT1,-0.08,migration z between -2 and 2; enough cells,5891,inactive
TDRD12,-1.79,migration z between -2 and 2; enough cells,6156,inactive
MZT1,-0.1,migration z between -2 and 2; enough cells,6112,inactive
NUTM1,0.6,migration z between -2 and 2; enough cells,5872,inactive
RUNX1T1,-1.06,migration z between -2 and 2; enough cells,4759,inactive
FHL2,-0.5,migration z between -2 and 2; enough cells,5485,inactive
BDKRB2,0.44,migration z between -2 and 2; enough cells,7628,inactive
DRG1,1.25,migration z between -2 and 2; enough cells,6133,inactive
TMEM167B,-0.12,migration z between -2 and 2; enough cells,6072,inactive
SEC23IP,-0.52,migration z between -2 and 2; enough cells,6481,inactive
NEURL2,0.16,migration z between -2 and 2; enough cells,5697,inactive
RASSF7,1.57,migration z between -2 and 2; enough cells,4728,inactive
S100A16,1.1,migration z between -2 and 2; enough cells,5550,inactive
SLC44A2,-0.36,under 3300 nuclei; migration not judged,3264,inactive
MMP27,0.78,migration z between -2 and 2; enough cells,5480,inactive
KAZALD1,0.66,migration z between -2 and 2; enough cells,6350,inactive
TBC1D3C,-0.88,migration z between -2 and 2; enough cells,6344,inactive
ETNPPL,1.61,migration z between -2 and 2; enough cells,5213,inactive
FAM32A,0.36,migration z between -2 and 2; enough cells,5689,inactive
PTPRS,-1.4,migration z between -2 and 2; enough cells,4986,inactive
NFE2L2,0.9,migration z between -2 and 2; enough cells,5214,inactive

Single entries from above:
Entry for SNX7 in “migration class with cell-count check”: migration z above 2; enough cells
For “migration class with cell-count check”, S100A16 has migration z between -2 and 2; enough cells
Entry for ETNPPL in “migration class with cell-count check”: migration z between -2 and 2; enough cells
